The list shows a part of the results. These are further read-outs of the screen, such as a control signal, another cell line or another target. No call is given for them. The list favours compounds with an active or inconclusive main result. The note in brackets gives the kind of curve behind each potency; many fits are weak.
Assay: qHTS Assay for Lipid Storage Modulators in Drosophila S3 Cells;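 on cell number change: cells counted by Cell Tracker Red CMTPX staining in the red channel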
Conditions: BODIPY lipid droplet fluorescence, 18-24 h; for cell number change: measured here: cell count max response, cells fed with added oleic acid
Outline: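 Drosophila S3 cells got compounds at several concentrations plus oleic acid (400 uM solution). Laser-scanning cytometry with 488 nm excitation read lipid droplets at 500-530 nm and cells at 575-640 nm. Percent activity was relative to 20 uM Triacsin C.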

[1] = measured here: lipid fluorescence (Fed channel) AC50, cells fed with added oleic acid
[2] = measured here: cell number channel AC50, cells fed with added oleic acid

Compound | cell number change | AC50 [1] | AC50 [2]
COc1ccccc1C(=O)OCC(=O)NC(=O)NC1CCCC1 | -6.91% | 0.164 µM [falling, full curve] | –
C=CCNC(=O)C1CC(=O)N(c2ccc(OCC(=O)NCc3ccccc3)cc2)C1 (configuration not stated) | -10.2% | – | –
CCC(=O)c1ccccc1OCCN1C(=O)NC(C)(C)C1=O | -0.647% | 11.6 µM [rising, single point] | –
COc1cc(C2C(C(=O)c3ccc(C)o3)=C(O)C(=O)N2CCCn2ccnc2)cc(OC)c1OC (configuration not stated) | 1.72% | 3.26 µM [rising, partial curve] | –
CCN(CCNCC(O)COc1ccccc1C(C)C)c1cccc(C)c1 (configuration not stated) | -11.1% | 0.116 µM [falling, full curve, poor fit] | –
Cc1cccc(NC(=O)Cn2nnc3sc4c(c3c2=O)CC(C)(C)OC4)c1 | 11% | – | 2.31 µM [rising, single point]
CC(C(=O)Nc1ccccc1Oc1ccccc1)c1ccccc1 (configuration not stated) | 34.4% | 1.84 µM [rising, single point] | 11.6 µM [rising, partial curve]
Cc1ccc(NS(=O)(=O)N2CCOCC2)c(C)c1 | 4.46% | 6.51 µM [falling, single point] | –
O=C(NC(=S)NC1CCCC1)c1ccccc1Br | 19.1% | 14.6 µM [rising, single point] | –
CN(C)S(=O)(=O)N(CC(=O)N1CCOCC1)c1ccccc1 | -30.3% | 4.11 µM [falling, full curve] | 6.51 µM [falling, full curve, poor fit]
O=C1CCC(CCC(=O)N2CCCC(C(=O)c3cccc(C(F)(F)F)c3)C2)=NN1 (configuration not stated) | -3.41% | 0.00517 µM [falling, full curve, poor fit] | –
Cc1ccc(C(=O)COC(=O)c2c(C)cc(=O)oc2C)cc1[N+](=O)[O-] | 1.57% | 2.91 µM [rising, single point] | –
CN1CC(=O)N(CC(=O)Nc2ccc(N(C)C)cc2)c2ccccc2C1=O | 32.7% | – | 16.4 µM [rising, single point]
CCOC(=O)c1sc2ncn(/N=C/c3ccc(O)c(OC)c3)c(=O)c2c1C | -12.7% | 1.16 µM [falling, single point] | –
CCOc1ccccc1NC(=O)N1CCN(S(C)(=O)=O)CC1 | 24.7% | 29.1 µM [rising, single point] | –
CC(C)(C)c1ccc(OCCC(=O)OCC(=O)Nc2ccc(N3CCOCC3)cc2)cc1 | 9.24% | – | –
O=C(O)c1ccc(OS(=O)(=O)c2cccc(C(F)(F)F)c2)cc1 | 27.1% | 9.2 µM [rising, partial curve] | –
Cc1ccc(CNC(=O)Cn2ccc(NC(=O)OCc3ccccc3)nc2=O)o1 | -15.3% | 6.51 µM [falling, partial curve, poor fit] | 4.11 µM [falling, partial curve, poor fit]
COc1ccc2oc(C(=O)NCc3cc(OC)c(OC)cc3OC)c(C)c2c1 | – | 1.16 µM [falling, single point] | 0.00461 µM [rising, full curve, poor fit]
CC(=O)Nc1ccc(NC(=O)Cn2c(=O)n(-c3ccccc3)c(=O)c3oc4ccccc4c32)cc1 | – | 6.51 µM [falling, single point] | –

Complete entries, quoted from the list:
CN1CC(=O)N(CC(=O)Nc2ccc(N(C)C)cc2)c2ccccc2C1=O as listed: cell number change: 32.7%; AC50 [2]: 16.4 µM [rising, single point]
CC(C)(C)c1ccc(OCCC(=O)OCC(=O)Nc2ccc(N3CCOCC3)cc2)cc1 as listed: cell number change: 9.24%

Later entries

Compound | cell number change | AC50 [1] | AC50 [2]
COc1ccc(C2=NOC3(CC(=O)N(c4ccc(C)cc4)C3=O)C2)cc1 (configuration not stated) | 0.119% | – | –
Cn1nc(NC(=O)C(F)(F)F)c2ncc(-c3ccc(Cl)cc3)nc21 | 0.434% | 0.0651 µM [rising, full curve, poor fit] | –
CCc1nc(Nc2cccc(O)c2)c2oc3ccccc3c2n1 | -6.34% | 0.58 µM [falling, single point] | –
COc1ccc(C2(C(=O)NCCN3CCOCC3)CCOCC2)cc1 | -14.9% | 0.0206 µM [falling, full curve, poor fit] | –
COCCNC(=O)CN(c1cc(Cl)ccc1OC)S(=O)(=O)c1ccc(C)c([N+](=O)[O-])c1 | -32.1% | 29.1 µM [falling, single point] | 29.1 µM [falling, single point]
COc1ccc(NC(=O)CN2C(=O)C(C)Oc3ccccc32)cc1 (configuration not stated) | -37.7% | 3.66 µM [rising, single point] | 1.3 µM [falling, full curve, poor fit]
Oc1cccc(/C=N/N2CCN(C3c4ccccc4-c4ccccc43)CC2)c1 | -38.6% | – | 29.1 µM [falling, single point]
CC(=O)Nc1ccc(S(=O)(=O)NCCSCc2ccccc2Cl)cc1 | 11.9% | 4.61 µM [falling, single point] | –
O=C(NNC1=NCCC1)c1ccc(Br)cc1 | 26.7% | 0.58 µM [falling, single point] | –
CCN(C(=O)CO/N=C/c1ccc(OC)cc1OC)c1c(N)n(Cc2ccccc2)c(=O)[nH]c1=O | 30.2% | – | 0.206 µM [rising, full curve, poor fit]
CCOc1cc(Br)cc(C(c2c(C(=O)O)[nH]c3ccccc23)c2c(C(=O)O)[nH]c3ccccc23)c1O | -15.3% | 29.1 µM [falling, single point] | –
C=C[C@@H]1c2ccccc2N(S(=O)(=O)c2ccc(C)cc2)[C@H](c2ccccc2)C1(C#N)C#N | 2.03% | 7.31 µM [falling, partial curve, poor fit] | 0.116 µM [falling, full curve, poor fit]
CCn1nnnc1NCc1cccc(Cl)c1 | 19.7% | 0.103 µM [rising, partial curve, poor fit] | 0.0461 µM [rising, partial curve]
CCn1c(CCn2ccnc2C)n[nH]c1=S | -17.4% | 18.4 µM [falling, partial curve] | –
CCc1nc(NCC2CCCO2)c(C#N)c2c1COC(C)(C)C2 (configuration not stated) | -19.8% | 9.2 µM [falling, partial curve, poor fit] | –
O=S(=O)(NCc1ccccc1Cl)c1cccs1 | 34.4% | 29.1 µM [rising, single point] | 4.61 µM [rising, full curve]
COc1cccc(/C=N/NC(=S)NCCc2ccccc2)c1 | 16.2% | – | –
COc1ccc(OCC(O)CN2C(=O)c3ccccc3S2(=O)=O)cc1 (configuration not stated) | -15.2% | – | –
COc1ccc(Cl)cc1S(=O)(=O)n1c([N+](=O)[O-])cnc1C | – | 29.1 µM [rising, single point] | –
Cc1ccc2nsnc2c1NC(=O)c1ccc([N+](=O)[O-])o1 | – | 6.51 µM [falling, single point] | –

Compound | cell number change | AC50 [1] | AC50 [2]
CC(C)c1ccc(NC(=S)NCc2cccs2)cc1 | -20.8% | 0.461 µM [falling, full curve, poor fit] | –
O=C(Nc1ccc(Oc2cccnc2)cc1)C1CCCCN1Cc1ccc(CO)o1 (configuration not stated) | – | 6.31 µM [rising, full curve] | –
O/N=C(/CCc1ccccc1)C1(O)CCCCC1 | 3.33% | 18.4 µM [falling, single point] | –
CCOc1ccc(NC(=O)c2csc3c2CCCC3)cc1 | 26.4% | 10.3 µM [rising, partial curve] | –
N=c1sccn1CC(=O)Nc1ccccc1Cc1ccccc1 | -4.38% | – | –
COc1ccccc1-c1nnc(SCC(=O)c2c(N)n(C3CC3)c(=O)[nH]c2=O)n1C | -3.82% | – | –
Cc1ccc(S(=O)(=O)NCC(C)NS(C)(=O)=O)cc1 (configuration not stated) | -65.4% | – | 16.4 µM [falling, single point]
O=C(O)c1cnc(-c2ccccc2)nc1-c1ccccc1 | -5.29% | – | –
Cc1noc(C)c1COc1ccccc1C(=O)N(C)CC(=O)Nc1ccc(F)c(F)c1F | 20.3% | 0.082 µM [rising, full curve, poor fit] | –
O=C(Nc1ccc(-c2nc3ccccc3s2)cc1)C1=COCCO1 | 1.63% | 29.1 µM [rising, single point] | –
CC(O)CCC(=O)NCCNC(=O)CCC(C)O (configuration not stated) | -30.3% | 0.731 µM [falling, partial curve] | 1.64 µM [falling, single point]
Fc1ccc(N2CCN(Cc3cnc(Cl)s3)CC2)cc1 | 13.8% | 0.231 µM [falling, partial curve] | 7.31 µM [falling, partial curve, poor fit]
CCCn1c(SCc2cc(=O)oc3ccc4ccccc4c23)n[nH]c1=O | -13.5% | – | –
CCNc1nc(NCC)nc(Nn2cnnc2)n1 | 15% | 0.116 µM [falling, full curve, poor fit] | –
COC(=O)CCN(c1ccccc1)S(=O)(=O)c1ccc(OC)cc1 | 0.278% | 4.11 µM [falling, single point] | 0.651 µM [falling, full curve, poor fit]
Cc1nc2ccc(Br)cc2c2c1CC(CBr)O2 (configuration not stated) | -35.4% | – | 16.4 µM [falling, single point]
CCOc1cc2c(C#N)c(N3CCOCC3)nc(N)c2c(N)n1 | -39.4% | 0.651 µM [falling, single point] | 0.0058 µM [falling, full curve, poor fit]
O=C(Cn1nc(Cl)nc1Cl)c1ccccc1 | 5.83% | – | –
COc1ccc(S(=O)(=O)Nc2c(C)n(C)n(-c3ccccc3)c2=O)c(Cl)c1Cl | 5.47% | 29.1 µM [rising, single point] | –
Cn1c(=O)cc(-c2ccccc2)c2ccccc21 | – | – | 6.51 µM [rising, single point]

An excerpt of these results, tab-delimited.
Compound	cell number change	AC50 [1]	AC50 [2]
O=C(Nc1ccc(Oc2cccnc2)cc1)C1CCCCN1Cc1ccc(CO)o1 (configuration not stated)	–	6.31 µM [rising, full curve]	–
O/N=C(/CCc1ccccc1)C1(O)CCCCC1	3.33%	18.4 µM [falling, single point]	–
N=c1sccn1CC(=O)Nc1ccccc1Cc1ccccc1	-4.38%	–	–
COc1ccccc1-c1nnc(SCC(=O)c2c(N)n(C3CC3)c(=O)[nH]c2=O)n1C	-3.82%	–	–
O=C(O)c1cnc(-c2ccccc2)nc1-c1ccccc1	-5.29%	–	–
O=C(Nc1ccc(-c2nc3ccccc3s2)cc1)C1=COCCO1	1.63%	29.1 µM [rising, single point]	–
CCNc1nc(NCC)nc(Nn2cnnc2)n1	15%	0.116 µM [falling, full curve, poor fit]	–
Cc1nc2ccc(Br)cc2c2c1CC(CBr)O2 (configuration not stated)	-35.4%	–	16.4 µM [falling, single point]
CCOc1cc2c(C#N)c(N3CCOCC3)nc(N)c2c(N)n1	-39.4%	0.651 µM [falling, single point]	0.0058 µM [falling, full curve, poor fit]
COc1ccc(S(=O)(=O)Nc2c(C)n(C)n(-c3ccccc3)c2=O)c(Cl)c1Cl	5.47%	29.1 µM [rising, single point]	–
Cn1c(=O)cc(-c2ccccc2)c2ccccc21	–	–	6.51 µM [rising, single point]

— PubChem BioAssay AID2685 (National Center for Advancing Translational Sciences (NCATS), 2010)
